Values from PubChem BioAssay AID1159578 (Peter MacCallum Cancer Centre, 2015)
The whole screen tested about 18,000 reagents; shown is an unselected part. In the full data, about 1,030 (5.7%) are marked active. 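Inactive calls also include pools with fewer than 3300 nuclei, whose migration was not assessed.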 Raw values are not corrected between plates. Entries without a mark were called inactive.

Aim: 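Knock-downs that alter how fast lymphatic endothelial cells migrate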 (primary screen)
Cell system: human lymphatic endothelial cells
Knock-down reagent: siRNA pool against human genes, 40 nM
Timing: 48 h after transfection
Measurement: 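High-content imaging of dye-stained cells in a scratch assay measures filled wound area and nuclei per well; duplicate means given as ratio to mock and robust z-score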
Direction: migration robust z-score: higher = faster migration into the scratch; migration relative to mock: higher = more scratch area covered than mock; nuclei per well: higher = more cells in the well
Active means: 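Pools averaging fewer than 3300 nuclei are never called; remaining pools count as changed when migration robust z lies outside -2 to 2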
Calls: active = migration changed; inactive = no migration change, or too few cells

no.	Target gene	migration robust z-score	migration class with cell-count check	migration relative to mock	nuclei per well, duplicate mean
1	HNRNPAB	1.36	migration z between -2 and 2; enough cells	1.23	5939
2	LAYN	-2.35 (active)	migration z below -2; enough cells	0.28	6580
3	IMMT	0.37	migration z between -2 and 2; enough cells	0.98	6324
4	TST	-0.36	under 3300 nuclei; migration not judged	0.74	3145
5	CNBD2	0	migration z between -2 and 2; enough cells	0.88	6243
6	ORAI2	-0.07	migration z between -2 and 2; enough cells	0.87	7183
7	TCERG1	0.42	under 3300 nuclei; migration not judged	0.88	3196
8	SKIDA1	1.11	migration z between -2 and 2; enough cells	1.18	5520
9	ATF7IP2	0.92	migration z between -2 and 2; enough cells	1.12	5724
10	REPS1	-1.7	migration z between -2 and 2; enough cells	0.44	5708
11	THEM6	0.9	migration z between -2 and 2; enough cells	1.12	6348
12	TMEM31	0.86	migration z between -2 and 2; enough cells	1.11	6576
13	PEAK3	-0.7	migration z between -2 and 2; enough cells	0.7	6158
14	TSPAN8	-0.31	migration z between -2 and 2; enough cells	0.8	5262
15	LRTOMT	1.5	migration z between -2 and 2; enough cells	1.27	5172
16	ARHGAP17	0.33	migration z between -2 and 2; enough cells	0.97	5991
17	CLUH	0.62	migration z between -2 and 2; enough cells	0.92	5781
18	ERBB4	-1.79	migration z between -2 and 2; enough cells	0.46	4402
19	COL28A1	1.25	migration z between -2 and 2; enough cells	1.21	4948
20	RTP2	0.07	migration z between -2 and 2; enough cells	0.9	6570
21	DPY19L4	-0.15	migration z between -2 and 2; enough cells	0.85	4813
22	SNAPC1	-0.71	migration z between -2 and 2; enough cells	0.7	5832
23	KCNIP3	-0.08	migration z between -2 and 2; enough cells	0.79	4638
24	OGA	0.65	migration z between -2 and 2; enough cells	0.93	5130
25	KRT77	0.16	migration z between -2 and 2; enough cells	0.92	6359
26	GAP43	-0.26	migration z between -2 and 2; enough cells	0.82	7037
27	FGF18	-0.68	migration z between -2 and 2; enough cells	0.68	4999
28	WAC	1.34	migration z between -2 and 2; enough cells	1.23	6622
29	DEFB126	-1.77	migration z between -2 and 2; enough cells	0.42	4000

Limited to “nuclei per well, duplicate mean” (8 entries from above):
CLUH: 5781
ERBB4: 4402
COL28A1: 4948
RTP2: 6570
DPY19L4: 4813
SNAPC1: 5832
KCNIP3: 4638
OGA: 5130

More results:
no.	Target gene	migration robust z-score	migration class with cell-count check	migration relative to mock	nuclei per well, duplicate mean
30	CSRNP2	-0.02	migration z between -2 and 2; enough cells	0.88	5820
31	RGS21	0.22	migration z between -2 and 2; enough cells	0.94	5848
32	OSBPL1A	-0.05	migration z between -2 and 2; enough cells	0.8	7421
33	GARIN2	0.92	migration z between -2 and 2; enough cells	1.12	6124
34	PHF20	0.21	migration z between -2 and 2; enough cells	0.84	6636
35	TSPY1	0	migration z between -2 and 2; enough cells	0.88	5906
36	LIMK2	-0.05	migration z between -2 and 2; enough cells	0.8	6460
37	TNFRSF1B	-2.8 (active)	migration z below -2; enough cells	0.26	4402
38	CENPK	0.24	migration z between -2 and 2; enough cells	0.95	4918
39	CORO7	-0.49	migration z between -2 and 2; enough cells	0.71	5598
40	PHF6	0.11	migration z between -2 and 2; enough cells	0.82	5526
41	RPH3A	0.97	migration z between -2 and 2; enough cells	1.14	6706
42	TOP1MT	1.74	migration z between -2 and 2; enough cells	1.14	5176
43	RPS18	-2.9 (active)	migration z below -2; enough cells	0.14	3562
44	BMP6	-0.06	migration z between -2 and 2; enough cells	0.87	7102
45	OTUD5	-0.36	migration z between -2 and 2; enough cells	0.79	5793
46	DCUN1D5	0.47	migration z between -2 and 2; enough cells	0.89	5220
47	MBD5	-1.58	migration z between -2 and 2; enough cells	0.48	4074
48	ESR1	0.13	migration z between -2 and 2; enough cells	0.83	5970
49	RBMXL2	-0.78	migration z between -2 and 2; enough cells	0.68	6235
50	NRP2	0.31	migration z between -2 and 2; enough cells	0.86	5507
51	IGF2BP2	0.65	migration z between -2 and 2; enough cells	1.05	6971
52	MTAP	1.53	migration z between -2 and 2; enough cells	1.1	5960
53	ARSJ	-0.24	migration z between -2 and 2; enough cells	0.76	4882
54	RAB10	0	migration z between -2 and 2; enough cells	0.8	5436
55	BATF	0.96	migration z between -2 and 2; enough cells	0.99	5578
56	OR1N1	-0.13	migration z between -2 and 2; enough cells	0.85	4824
57	DRC8	-1.97	migration z between -2 and 2; enough cells	0.38	5752
